Data published in PubChem BioAssay AID743255 (National Center for Advancing Translational Sciences (NCATS), 2014).
The campaign covered roughly 390,000 compounds. About 910 (0.23%) were called active. The inconclusive results got no clear call from the source; some entries with a clear call stand among them for comparison. Calls follow the shape of the dose curve; as a rule, active = well fitted inhibition curve with a large enough effect; inconclusive = small, poorly fitted or top-dose-only effect; inactive = no such curve, though single readings can be large or run the other way. Potencies of inconclusive entries are doubtful fits and often do not repeat.

Amino acid sequences for entries named in this document (tags omitted). A change or cut given only in a name is not applied to a line headed by its entry.
UniProt O94782: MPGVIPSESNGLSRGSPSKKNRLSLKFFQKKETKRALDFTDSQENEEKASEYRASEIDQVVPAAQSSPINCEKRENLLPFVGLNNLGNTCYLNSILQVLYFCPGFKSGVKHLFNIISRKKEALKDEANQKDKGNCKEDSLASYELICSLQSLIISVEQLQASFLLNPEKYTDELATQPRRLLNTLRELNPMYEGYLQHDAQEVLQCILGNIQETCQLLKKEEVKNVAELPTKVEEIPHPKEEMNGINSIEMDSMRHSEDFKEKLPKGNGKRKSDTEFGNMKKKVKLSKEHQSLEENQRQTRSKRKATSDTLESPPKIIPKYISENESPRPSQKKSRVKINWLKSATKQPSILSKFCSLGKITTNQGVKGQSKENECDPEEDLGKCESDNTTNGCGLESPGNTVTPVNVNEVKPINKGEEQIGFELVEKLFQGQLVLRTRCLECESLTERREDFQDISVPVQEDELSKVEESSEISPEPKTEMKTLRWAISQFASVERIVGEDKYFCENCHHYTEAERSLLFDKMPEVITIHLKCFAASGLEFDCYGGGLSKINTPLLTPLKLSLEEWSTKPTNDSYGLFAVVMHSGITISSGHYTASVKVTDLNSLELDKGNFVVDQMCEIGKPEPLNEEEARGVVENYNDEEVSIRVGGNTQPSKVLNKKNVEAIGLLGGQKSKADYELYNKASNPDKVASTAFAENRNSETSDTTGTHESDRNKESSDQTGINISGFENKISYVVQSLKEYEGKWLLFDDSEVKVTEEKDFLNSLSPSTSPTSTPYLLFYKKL

Each molecule was assayed against Ubiquitin carboxyl-terminal hydrolase 1 (Homo sapiens) (UniProt O94782) (assay: Inhibitors of USP1/UAF1: Primary Screen). Conditions: recombinant USP1/UAF1, Ub-Rhodamine cleavage fluorescence; activity change, negative = inhibition: at 57.1 µM (top of the series).
Summary of the method: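 1 nM enzyme complex + cpd, 15 min RT; start with Ub-Rho 150nM final; kinetic fluorescence ex 480/em 540, 6 reads q60 s. Buffer 50mM HEPES pH 7.8, 0.5mM EDTA, 0.1 mg/ml BSA, 1mM TCEP, 0.01% Tween-20.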
% is scaled to controls: 0 for no effect and ±100 for the full control effect; potency is read from the fitted curve at half-maximal effect.
Also: nearly all actives have a fitted effect of over 60% in size.

| SMILES | Potency | activity change, negative = inhibition |
| --- | --- | --- |
| CCN=C1S/C(=C\c2cc(Br)c(O)c(OC)c2)C(=O)N1CC | inconclusive: 28.2 µM [inhibitor, partial curve] |  |
| Cc1nn(-c2ccccc2)c(Cl)c1/C=N/NC(N)=O |  | inactive: -10.1% |
| CC(=O)c1ccc(NC(=O)C2CCCN2S(=O)(=O)c2cccc3cccnc23)cc1 (centres undefined) | inconclusive: 2 µM [inhibitor, full curve] |  |
| O=C(NCc1ccccc1)c1ccc2c(c1)CCN2S(=O)(=O)c1ccc(Cl)cc1 | inconclusive: 0.1 µM [inhibitor, full curve, poor fit] |  |
| CC(NC(=O)c1ccccc1Cl)C(=O)O (centres undefined) | inconclusive: 0.708 µM [inhibitor, full curve, poor fit] |  |
| CN(Cc1ccon1)C(=O)CC1C(=O)NCCN1Cc1ccccc1C(F)(F)F (centres undefined) | inconclusive: 112 µM [inhibitor, partial curve, poor fit] |  |
| O=C(c1cnc(N2CCN(c3ncccn3)CC2)c2ccccc12)N1CCN(c2ccccn2)CC1 |  | inactive: -7.26% |
| CCOC(=O)c1c(NC(=O)C2COc3ccccc3O2)sc(C(C)=O)c1C (centres undefined) | inconclusive: 39.8 µM [inhibitor, single point] |  |
| O=c1cc(CSc2ccc(Cl)cc2)nc2nc[nH]n12 |  | inactive: 2.44% |
| Cc1ccccc1C(=O)Nc1cccc(OCc2cc(=O)n3cccc(C)c3n2)c1 |  | inactive: 1.14% |
| Cc1cc(OC(C)C(=O)N(Cc2ccc(N(C)C)cc2)Cc2ccco2)ccc1Cl (centres undefined) | inconclusive: 89.1 µM [inhibitor, partial curve, poor fit] |  |
| CCOC(=O)c1oc2c(CN3CCN(C)CC3)c(O)ccc2c(=O)c1-c1ccccc1OC | inconclusive: 5.01 µM [inhibitor, partial curve] |  |
| Cc1ccc(Nc2c(O)nc[nH]c2=O)cc1 | inconclusive: 8.91 µM [inhibitor, single point] |  |
| CC1CS(=O)(=O)CCN1N=Cc1ccc([N+](=O)[O-])o1 (centres undefined) | inconclusive: 0.0794 µM [inhibitor, full curve, poor fit] |  |
| Cc1c(CN2CCCCC2)c(O)n(CCCO)c(=O)c1C#N |  | inactive: -24.6% |
| O=C(O)c1cc([N+](=O)[O-])ccc1Nc1ccccc1 |  | inactive: -19.4% |
| CC(=O)c1ccc(OCC(O)CN2CCN(c3ccccn3)CC2)cc1 (centres undefined) |  | inactive: -16.9% |
| Fc1ccc(-n2ncc3c(Nc4ccc5c(c4)OCCO5)ncnc32)cc1 | inconclusive: 1.41 µM [inhibitor, full curve, poor fit] |  |
| CCOc1cccc(CNC(=O)c2ccc(N3CCCC3)c(NC(=O)NCc3ccccc3)c2)c1 | inconclusive: 44.7 µM [inhibitor, partial curve, poor fit] |  |
| COc1ccc(-c2csc(-c3ccc(O)cc3)n2)cc1 | inconclusive: 31.6 µM [inhibitor, partial curve] |  |
| CCCNC(=O)NS(=O)(=O)c1ccc(Cl)cc1 |  | inactive: -19.2% |
| CC(=O)Nc1ccc(NC(=O)Nc2ccc(C)c(C)c2)cc1 | inconclusive: 8.91 µM [inhibitor, partial curve] |  |

| SMILES | Potency | activity change, negative = inhibition |
| --- | --- | --- |
| Oc1ccccc1CNCC12CC3CC(CC(C3)C1)C2 |  | inactive: -11.9% |
| Cc1cc(Cl)cc(C)c1OCCOCCNCc1ccccc1 |  | inactive: -17.9% |
| COc1cccc(C(C2C(=O)CC(C)(C)CC2=O)C2C(=O)CC(C)(C)CC2=O)c1 |  | inactive: -20.2% |
| O=C(c1ccccc1)c1c2c(cc3sc4ccccc4[n+]13)-c1cccc3cccc-2c13 | inconclusive: 5.01 µM [inhibitor, partial curve] |  |
| CCCC1COC(Cn2cncn2)(c2ccc(C)cc2)O1 (centres undefined) |  | inactive: 11.8% |
| CCOC(=O)c1nc(Nc2ccc(C(=O)OC(C)C)cc2)c2ccccc2n1 | inconclusive: 4.47 µM [inhibitor, single point] |  |
| CCOC(=O)[C@@H]1[C@H]2COc3ccc(Br)cc3[C@@H]2N2C(=O)N(c3ccc(Br)cc3)C(=O)[C@]12C | inconclusive: 0.141 µM [inhibitor, full curve, poor fit] |  |
| COc1ccc(-c2noc(CSc3nnc(C)n3-c3cccc(C)c3)n2)cc1 |  | inactive: -22.2% |
| CCc1ccc(/C=C/C(=O)c2c(C)cc(C)[nH]c2=O)cc1 | inconclusive: 44.7 µM [inhibitor, partial curve, poor fit] |  |
| CC1CCC2(CC1)NC(=O)N(CC(=O)Nc1ccc(N3CCCCC3)cc1)C2=O (centres undefined) | inconclusive: 0.0003 µM [inhibitor] |  |
| O=C(Nc1ccc2c(c1)OCCO2)c1cc2ccccc2o1 | inconclusive: 7.08 µM [inhibitor, partial curve, poor fit] |  |
| O=C(O)C(CO)(c1ccccc1)c1ccccc1 | inconclusive: 0.282 µM [inhibitor, partial curve, poor fit] |  |
| O=C(N1CCN(c2ccccc2F)CC1)C1(S(=O)(=O)c2ccc(Cl)cc2)CC1 | inconclusive: 56.2 µM [inhibitor, single point] |  |
| CN(Cc1ccccc1)c1ccc(-c2nc(-c3ccncc3)no2)cc1[N+](=O)[O-] |  | inactive: -8.91% |
| O=C(O)C1C2OC3C(OC(=O)C31)C2Br (centres undefined) | inconclusive: 50.1 µM [inhibitor, partial curve, poor fit] |  |
| CCN(CC)C(=O)Oc1nnc(SC(C)C)n1-c1ccc(Cl)c(Cl)c1 |  | inactive: -10.3% |
| O=C1CCc2cc(S(=O)(=O)NC(C(=O)Nc3cccc(F)c3)c3ccccc3)ccc2N1 (centres undefined) | inconclusive: 562 µM [inhibitor, partial curve, poor fit] |  |
| O=c1[nH]c2ccccc2nc1C(Nc1ccccc1)c1ccccc1 (centres undefined) | inconclusive: 44.7 µM [inhibitor, partial curve] |  |
| Oc1ccccc1Nc1nc2ccccc2n2nnnc12 | inconclusive: 44.7 µM [inhibitor, partial curve, poor fit] |  |
| O=C(O[C@@H]1OC2COC(=O)c3cc(O)c(O)c(O)c3-c3c(cc(O)c(O)c3O)C(=O)O[C@@H]([C@H]1O)[C@@H]2O)c1cc(O)c(O)c(O)c1 | inconclusive: 50.1 µM [inhibitor, partial curve, poor fit] |  |
| Cc1nnc(NC(=O)C2CCN(S(=O)(=O)c3ccc(F)c(Cl)c3)CC2)o1 |  | inactive: 0.941% |
| CCOc1ccc(NC(=O)CSc2oc(-c3ccccc3)nc2S(=O)(=O)c2ccc(Cl)cc2)cc1 |  | inactive: -18.1% |

Looked up one by one from the list above, 2 records:

| SMILES | Potency | activity change, negative = inhibition |
| --- | --- | --- |
| O=C(O)C1C2OC3C(OC(=O)C31)C2Br (centres undefined) | inconclusive: 50.1 µM [inhibitor, partial curve, poor fit] |  |
| Oc1ccccc1Nc1nc2ccccc2n2nnnc12 | inconclusive: 44.7 µM [inhibitor, partial curve, poor fit] |  |
